Patent publication US20240132461A1, “FLAVONE DEAZA SPERMIDINE ANALOGUES AND THEIR USE TREATING CANCER” (FLORATEK PHARMA S.A., priority 2021, published 2024)
Some results were stated once for a whole list of compounds, not compound by compound.

Test system: RXF 486
Experiment: Cell viability assay, MDR renal carcinoma patient derived line RXF 486
Format: cell-based
Conditions: RXF 486 MDR renal carcinoma patient derived line; listed as SND 146
Procedure: Antitumor activity of the compounds and doxorubicin as a positive control was assessed by using the CellTiter-Blue Cell Viability Assay (Promega, #G8082) or CellTiter-Glow® Luminescent Cell Viability assay (Promega # G7572) according to the manufacturer's instructions. The compounds were tested at 5 or 6 concentrations in half-log increments (highest concentration 30 μM-100 μM) in duplicate or triplicate well conditions.
Tumor cells were grown at 37° C. in a humidified atmosphere with 5% CO2 in RPMI 1640 or DMEM medium, supplemented with 10% (v/v) fetal calf serum and 50 μg/ml gentamicin for up to 20 passages, and were passaged once or twice weekly. Cells were harvested using TrypLE or PBS buffer containing 1 mM EDTA, and the percentage of viable cells is determined using a CASY Model TT cell counter (OMNI Life Science). Cells were harvested from exponential phase cultures, counted and plated in 96 well flat-bottom microtiter plates at a cell density depending on the cell line's growth rate (4,000-20,000 cells/well depending on the cell line's growth rate, up to 60,000 for hematological cancer cell lines) in RPMI 1640 or DMEM medium supplemented with 10% (v/v) fetal calf serum and 50 μg/ml gentamicin (140 μl/well). […] Viability of cells was quantified by the CellTiter-Blue® cell viability assay (Promega G8081) or CellTiter-Glow® Luminescent Cell Viability assay (Promega # G7572). […]

Row | Compound | IC50 [nM]
1 | COc1c(O)ccc2c(=O)cc(-c3ccc(CCCCN(C)CCN4CCCCC4)cc3)oc12 [SND146, 7-Hydroxy-8-methoxy-2-(4-(4-(methyl(2-(piperidin-1-yl)ethyl)amino)butyl)phenyl)-4H-chromen-4-one] | < 2000

Test system: not listed separately
Experiment: In vivo maximum tolerated dose in NOG mice
Conditions: 8-10 mg/kg i.p., daily or every other day over 8 days
Procedure: In order to evaluate the general toxicity of selected SND compounds in an animal model, a maximum tolerated dose (MTD) in NOG mice has been undertaken. Three mice per group were treated daily or every other day over 8 days at various doses between 5 mg/kg and 10 mg/kg. Administration of the compounds was i.p. A stock solution of the compounds (40 mg/ml in DMSO) was prepared and frozen at −20° C. in aliquots for each treatment. […] Body weights were measured before each treatment. Mice were further observed for 1 week after the last treatment.

Row | Compound | body weight of the animals
2 | COc1c(O)ccc2c(=O)cc(-c3ccc(CCCCN4CCN(C)CC4)cc3)oc12 [SND142, 7-Hydroxy-8-methoxy-2-(4-(4-(4-methylpiperazin-1-yl)butyl)phenyl)-4H-chromen-4-one] | below 5%
3 | COc1c(O)ccc2c(=O)cc(-c3ccc(CCCCN4CCCC4)cc3)oc12 [SND143, 7-hydroxy-8-methoxy-2-(4-(4-(pyrrolidin-1-yl)butyl)phenyl)-4H-chromen-4-one] | below 5%
4 | COc1c(O)ccc2c(=O)cc(-c3ccc(CCCCN4CCOCC4)cc3)oc12 [SND147, 7-hydroxy-8-methoxy-2-(4-(4-morpholinobutyl)phenyl)-4H-chromen-4-one] | below 5%
5 | COc1c(O)ccc2c(=O)cc(-c3ccc(CCCCN4CCCCC4)cc3)oc12 [SND148, 7-hydroxy-8-methoxy-2-(4-(4-(piperidin-1-yl)butyl)phenyl)-4H-chromen-4-one] | below 5%
6 | COc1c(O)ccc2c(=O)cc(-c3ccc(CNCCCCNCCCN)cc3)oc12 [SND164] | below 5%
